Measurements published in PubChem BioAssay AID248 (DTP/NCI, 2004).
The list is a part of this screen's results and no random one: it gathers tests that were run many times, whatever their T/C, doses with no T/C, and many T/C values between a quarter and a half above the control. Further doses and runs are listed elsewhere. T/C: endpoint of the treated group in % of that of the vehicle group. Some doses have a count of surviving animals in place of a T/C: the source holds a T/C of zero for them, seemingly a mark for toxic or unscored doses. Some doses without a T/C left all or most animals alive at the check, yet need not have been tolerated: the source hardly ever lists a survival T/C far under the control, and the zero likely stands for such cases as well. Counts of survivors are from the toxicity check (mostly the fifth day) where no day follows; animals may have died later. Schedule codes are those of the source, taken here to give the interval after Q, in days (D) or hours (H), and the number of doses after X. Some entries hold several experiments; the values are given in rising order. Some structures stand for samples that the source files as different forms (salt, stereo form or complex); doses refer to the form tested. For survival time, this PubChem deposit counts one and a half times the control or more as active, and values a quarter to a half above the control carry no call in these data; other NCI protocols may use other cut-offs. Some T/C values are followed by the survivors on the day toxicity was checked, most often the fifth; without a count, all were alive then.

Tested on: L1210 leukemia ip in BDF1 mice, survival T/C
Test: NCI In Vivo Anticancer Drug Screen. Data for tumor model L1210 Leukemia (intraperitoneal) in B6D2F1 (BDF1) mice
Details: T/C endpoint: mean survival time, higher T/C = longer survival
[1] = dose: 20.0 mg/kg/injection, schedule: Q01DX001 (ip), vehicle: saline
[2] = dose: 40.0 mg/kg/injection, schedule: Q01DX001 (ip), vehicle: saline
[3] = dose: 75.0 mg/kg/injection, schedule: Q01DX001 (ip), vehicle: saline
[4] = dose: 80.0 mg/kg/injection, schedule: Q01DX001 (ip), vehicle: saline
[5] = dose: 150.0 mg/kg/injection, schedule: Q01DX001 (ip), vehicle: saline
[6] = dose: 300.0 mg/kg/injection, schedule: Q01DX001 (ip), vehicle: saline
[7] = dose: 200.0 mg/kg/injection, schedule: Q01DX001 (ip), vehicle: carboxymethylcellulose (CMC)
[8] = dose: 400.0 mg/kg/injection, schedule: Q01DX001 (ip), vehicle: carboxymethylcellulose (CMC)
[9] = dose: 100.0 mg/kg/injection, schedule: Q01DX001 (ip), vehicle: carboxymethylcellulose (CMC)
[10] = dose: 400.0 mg/kg/injection, schedule: Q04DX003 (ip), vehicle: saline
[11] = dose: 300.0 mg/kg/injection, schedule: Q01DX001 (ip), vehicle: carboxymethylcellulose (CMC)
[12] = dose: 200.0 mg/kg/injection, schedule: Q01DX009 (ip), vehicle: saline with Tween-80
[13] = dose: 400.0 mg/kg/injection, schedule: Q04DX003 (ip), vehicle: saline with Tween-80
[14] = dose: 50.0 mg/kg/injection, schedule: Q04DX003 (ip), vehicle: Klucel (hydroxypropylcellulose) (HPC)
[15] = dose: 100.0 mg/kg/injection, schedule: Q04DX003 (ip), vehicle: Klucel (hydroxypropylcellulose) (HPC)
[16] = dose: 200.0 mg/kg/injection, schedule: Q04DX003 (ip), vehicle: Klucel (hydroxypropylcellulose) (HPC)
[17] = dose: 400.0 mg/kg/injection, schedule: Q04DX003 (ip), vehicle: Klucel (hydroxypropylcellulose) (HPC)

With `CSP(N)(N)=O` the survivor count [1] was 0 of 6, the survivor count [2] was 0 of 6 and the survivor count [3] was 0 of 6. For the same compound, the survivor count [4] was 0 of 6, the survivor count [5] was 0 of 6 and the survivor count [6] was 0 of 6.

With `Cc1ccc(C(=O)NC(N)=O)cc1` the survivor count (dose: 400.0 mg/kg/injection, schedule: Q01DX009 (ip), vehicle: Klucel (hydroxypropylcellulose) (HPC)) was 6 of 6.

With `CC(C)CN(CC(C)C)C(=O)CCl` the survivor count [7] was 1 of 4 and the survivor count [8] was 0 of 4.

In the case of `CCCCC(CC)(CCC)CCN` (stereo not given), the survivor count (dose: 40.0 mg/kg/injection, schedule: Q01DX001 (ip), vehicle: carboxymethylcellulose (CMC)) is reported as 4 of 4, the survivor count (dose: 50.0 mg/kg/injection, schedule: Q01DX001 (ip), vehicle: carboxymethylcellulose (CMC)) is reported as 0 of 4 and the survivor count (dose: 80.0 mg/kg/injection, schedule: Q01DX001 (ip), vehicle: carboxymethylcellulose (CMC)) is reported as 1 of 4. For the same compound, the survivor count [9] was 0 of 4, the survivor count [7] was 0 of 4 and the survivor count [8] was 0 of 4.

In the case of `c1ccc([P+](CCN2CCC([P+](c3ccccc3)(c3ccccc3)c3ccccc3)=N2)(c2ccccc2)c2ccccc2)cc1`, the survivor count (dose: 6.25 mg/kg/injection, schedule: Q04DX003 (ip), vehicle: saline) is reported as 1 of 6, the survivor count (dose: 12.5 mg/kg/injection, schedule: Q04DX003 (ip), vehicle: saline) is reported as 2 of 6 and the survivor count (dose: 25.0 mg/kg/injection, schedule: Q04DX003 (ip), vehicle: saline) is reported as 0 of 6. For the same compound, the survivor count (dose: 50.0 mg/kg/injection, schedule: Q04DX003 (ip), vehicle: saline) was 0 of 6, the survivor count (dose: 100.0 mg/kg/injection, schedule: Q04DX003 (ip), vehicle: saline) was 0 of 6 and 6 of 6 and the survivor count (dose: 200.0 mg/kg/injection, schedule: Q04DX003 (ip), vehicle: saline) was 6 of 6. For the same compound, the survivor count [10] was 0 of 6.

In the case of `O=C1C(Cl)=C(N2CC2)C(=O)C(Cl)=C1N1CC1`, the T/C (dose: 0.62 mg/kg/injection, schedule: Q01DX009 (ip), vehicle: saline) is reported as 128 % of control [5 of 6 alive], the T/C (dose: 2.5 mg/kg/injection, schedule: Q01DX009 (ip), vehicle: saline) is reported as 125 % of control and the survivor count (dose: 5.0 mg/kg/injection, schedule: Q01DX009 (ip), vehicle: saline) is reported as 2 of 6. The survivor count (dose: 20.0 mg/kg/injection, schedule: Q01DX009 (ip), vehicle: saline) was 0 of 6.

`CCOP(N)(=O)SCC` (stereo not given) was tested, and the survivor count (dose: 10.0 mg/kg/injection, schedule: Q01DX001 (ip), vehicle: saline) was 3 of 6, the survivor count [1] was 0 of 6 and the survivor count [2] was 0 of 6. The survivor count [3] was 0 of 6, the survivor count [4] was 0 of 6 and the survivor count [5] was 0 of 6. The survivor count [6] was 0 of 6.

For `CC(=O)N(C)C1=C(Sc2ccc(Cl)cc2)C(=O)c2ccccc2C1=O`, the survivor count [11] was 2 of 6.

`Cc1c2ccncc2cc2c3ccccc3n(CC3CO3)c12` (stereo not given) was tested, and the T/C (dose: 37.5 mg/kg/injection, schedule: Q04DX003 (ip), vehicle: Klucel (hydroxypropylcellulose) (HPC)) was 128 % of control and the T/C (dose: 150.0 mg/kg/injection, schedule: Q04DX003 (ip), vehicle: Klucel (hydroxypropylcellulose) (HPC)) was 126 % of control.

For `CC(C(c1ccccc1)c1ccc(Cl)cc1)[N+](=O)[O-]` (stereo not given), the T/C (dose: 50.0 mg/kg/injection, schedule: Q01DX009 (ip), vehicle: saline with Tween-80) was 125 % of control, the survivor count [12] was 4 of 6 and the survivor count [13] was 2 of 6. For the same compound, the survivor count [10] was 6 of 6.

In the case of `CCOP(=O)(CSCCc1ccccc1)OCC`, the survivor count [10] is reported as 0 of 6.

In the case of `CCC(=O)c1ccc(NC(N)=S)cc1`, the survivor count (dose: 320.0 mg/kg/injection, schedule: Q01DX005 (ip), vehicle: saline with Tween-80) is reported as 0 of 6.

In the case of `CCN(CC)C(=O)c1cncc(-c2ccccc2)c1`, the survivor count (dose: 400.0 mg/kg/injection, schedule: Q01DX001 (ip), vehicle: Klucel (hydroxypropylcellulose) (HPC)) is reported as 2 of 6.

For `CC(=O)NC(CCSCc1c2ccccc2c(C)c2ccccc12)C(=O)O` (stereo not given), the survivor count [12] was 6 of 6 and the survivor count [13] was 4 of 6.

With `Cc1cc2c(cc1C)C(=O)C(N1CCN(C)CC1)CCC2` (stereo not given) the survivor count (dose: 200.0 mg/kg/injection, schedule: Q04DX003 (ip), vehicle: saline with Tween-80) was 3 of 6 and the survivor count [13] was 0 of 6.

In the case of `c1cc2c3c(c1)ncn3CCC2`, the survivor count [13] is reported as 1 of 6.

With `Nc1nc(N)c2c(n1)SCC(c1ccc(Cl)cc1)=N2` the survivor count (dose: 300.0 mg/kg/injection, schedule: Q01DX001 (ip), vehicle: other) was 2 of 6.

With `CO[As](OC)c1ccc(N=Nc2ccc(N(C)C)cc2)cc1` the survivor count (dose: 12.5 mg/kg/injection, schedule: Q04DX003 (ip), vehicle: Klucel (hydroxypropylcellulose) (HPC)) was 0 of 3, the survivor count (dose: 25.0 mg/kg/injection, schedule: Q04DX003 (ip), vehicle: Klucel (hydroxypropylcellulose) (HPC)) was 0 of 3 and the survivor count [14] was 1 of 3. The survivor count [15] was 4 of 6, the survivor count [16] was 5 of 6 and the survivor count [17] was 2 of 6.

With `NCCCCCCN=C(N)C(N)=NCCCCCCN` the survivor count (dose: 12.5 mg/kg/injection, schedule: Q01DX009 (ip), vehicle: Klucel (hydroxypropylcellulose) (HPC)) was 0 of 6 and 3 of 6, the T/C (dose: 12.5 mg/kg/injection, schedule: Q04DX002 (ip), vehicle: saline) was 127 % of control and the survivor count (dose: 25.0 mg/kg/injection, schedule: Q01DX009 (ip), vehicle: Klucel (hydroxypropylcellulose) (HPC)) was 0 of 6. The survivor count (dose: 25.0 mg/kg/injection, schedule: Q04DX002 (ip), vehicle: saline) was 0 of 3, the survivor count (dose: 50.0 mg/kg/injection, schedule: Q01DX009 (ip), vehicle: Klucel (hydroxypropylcellulose) (HPC)) was 0 of 6 and the survivor count (dose: 50.0 mg/kg/injection, schedule: Q04DX002 (ip), vehicle: saline) was 0 of 3. The survivor count [14] was 0 of 6, the survivor count (dose: 100.0 mg/kg/injection, schedule: Q04DX002 (ip), vehicle: saline) was 0 of 3 and the survivor count [15] was 0 of 6. The survivor count (dose: 200.0 mg/kg/injection, schedule: Q04DX002 (ip), vehicle: saline) was 0 of 3, the survivor count [16] was 0 of 6 and the survivor count (dose: 400.0 mg/kg/injection, schedule: Q04DX002 (ip), vehicle: saline) was 0 of 3. The survivor count [17] was 0 of 6.

With `CCCCCCCCNCCOC(=O)c1ccc(N(CC)CC)cc1` the survivor count [11] was 1 of 6.

For `O=C(/C=C\c1ccc(NCc2ccc(C(=O)O)cc2)cc1)CCl`, the survivor count [9] was 4 of 4.
